This is one part of the list. Shown are side measurements of this screen, not its main read-out; they come without a call. Compounds called inactive in the main read-out are mostly missing here. The note in brackets gives the kind of curve behind each potency; many fits are weak.
Assay: qHTS Assay for Lipid Storage Modulators in Drosophila S3 Cells;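 for cell number change: cells counted by Cell Tracker Red CMTPX staining in the red channel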
Details: BODIPY lipid droplet fluorescence, 18-24 h; for cell number change: measured here: cell count max response, cells fed with added oleic acid
How it was run: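 Laser-scanning cytometry quantifies lipid droplet accumulation (500–530 nm total intensity; droplet/cell object ratio) in oleic acid-fed (400 uM added) Drosophila S3 cells treated with a concentration series. 20 uM Triacsin C defined 100% inhibition.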

[1] = measured here: lipid fluorescence (Fed channel) AC50, cells fed with added oleic acid
[2] = measured here: cell number channel AC50, cells fed with added oleic acid

Structure (SMILES)	cell number change	AC50 [1]	AC50 [2]
CCC1CCc2sc(C(=O)N(C)CC(=O)Nc3cccc(OC)c3)cc2C1 (configuration not stated)	17.7%	10.3 µM [rising, partial curve, poor fit]	–
C/C(=N\Nc1cc(Cl)nc(C)n1)c1ccc(Cl)c(Cl)c1	–	0.103 µM [rising, full curve, poor fit]	–
N#Cc1c(SCC(=O)Nc2nc3ccc(Br)cc3s2)sc2c(O)cc(=O)[nH]c12	8.55%	0.146 µM [rising, full curve, poor fit]	–
O=C(N/N=C/c1ccccc1)c1c(O)c2ccccc2[nH]c1=O	-29.7%	6.51 µM [falling, full curve]	–
Brc1cccc(OCCCN2CCCCCC2)c1	-18.1%	29.1 µM [falling, single point]	–
CCCCn1c(N)c(N(CC(C)C)C(=O)c2cc(-c3ccncc3)nc3ccccc23)c(=O)[nH]c1=O	–	–	1.03 µM [rising, single point]
O=C(NNc1ccccc1)C(=O)NNS(=O)(=O)c1ccc([N+](=O)[O-])cc1	-9.98%	–	–
Cc1cccc(CSc2ncnc3ccccc23)c1	-20.8%	–	–
CC(=O)Nc1ccc(-n2c(=O)c3ccccc3c3ccccc3c2=O)cc1	-12.6%	7.31 µM [falling, partial curve]	–
COc1ccc(/C=C/c2cc(=O)c3cc(Cl)ccc3o2)cc1	35.4%	2.06 µM [rising, partial curve]	10.3 µM [rising, partial curve, poor fit]
Cc1ccc(NC(=O)CCSc2ccccn2)cc1	2.35%	29.1 µM [falling, single point]	–
O=C1CNC(=O)/C1=C\N1CCCCC1	-10.3%	14.6 µM [falling, partial curve]	–
CCc1sc(C(=O)NCCc2ccc(S(N)(=O)=O)cc2)cc1C	17.1%	–	–
Cc1ccc(S(=O)(=O)N2CCCC2c2nc3ccccc3s2)cc1 (configuration not stated)	24.1%	3.26 µM [rising, full curve]	–
C#CCOCCOCCOCCNc1nc(N2CCOCC2)nc(N2CCN(C(=O)CCCCCCCCCCNC(=O)[C@@H]([C@H](C)CC)n3cc(CCCCCN)nn3)CC2)n1	-44.7%	32.6 µM [falling, single point]	16.4 µM [falling, single point]
Cc1ccc(NS(=O)(=O)c2cccc(C(=O)NCC(c3ccco3)N3CCCCC3)c2)cc1 (configuration not stated)	-4.7%	0.00411 µM [rising, full curve, poor fit]	–
COC(=O)[C@@]12CCCCN1[C@H](c1ccc(-c3ccc(C(C)=O)cc3)c(OC)c1)[C@@H]1C(=O)N(C)C(=O)[C@@H]12	–	–	6.51 µM [rising, single point]
COc1ccccc1C=NC(CO)C(O)c1ccc([N+](=O)[O-])cc1 (configuration not stated)	3.6%	–	–
N#Cc1ccc(C(=O)NN2C(=O)NC3(CCCCC3)C2=O)cc1	100%	–	18.4 µM [rising, single point]
COc1ccc(OCc2cc(C(=O)NCC3CCOCC3)no2)c(Cl)c1	-17.4%	–	–

Of the compounds above, 6 contain four or more nitrogen atoms.
Structure (SMILES)	cell number change	AC50 [1]	AC50 [2]
C/C(=N\Nc1cc(Cl)nc(C)n1)c1ccc(Cl)c(Cl)c1	–	0.103 µM [rising, full curve, poor fit]	–
N#Cc1c(SCC(=O)Nc2nc3ccc(Br)cc3s2)sc2c(O)cc(=O)[nH]c12	8.55%	0.146 µM [rising, full curve, poor fit]	–
CCCCn1c(N)c(N(CC(C)C)C(=O)c2cc(-c3ccncc3)nc3ccccc23)c(=O)[nH]c1=O	–	–	1.03 µM [rising, single point]
O=C(NNc1ccccc1)C(=O)NNS(=O)(=O)c1ccc([N+](=O)[O-])cc1	-9.98%	–	–
C#CCOCCOCCOCCNc1nc(N2CCOCC2)nc(N2CCN(C(=O)CCCCCCCCCCNC(=O)[C@@H]([C@H](C)CC)n3cc(CCCCCN)nn3)CC2)n1	-44.7%	32.6 µM [falling, single point]	16.4 µM [falling, single point]
N#Cc1ccc(C(=O)NN2C(=O)NC3(CCCCC3)C2=O)cc1	100%	–	18.4 µM [rising, single point]

(further entries)

Structure (SMILES)	cell number change	AC50 [1]	AC50 [2]
COCCOC(=O)C1=C(C)N(Cc2ccccc2)C(=O)NC1c1ccc(OC)cc1 (configuration not stated)	14.2%	2.06 µM [rising, single point]	–
O=C(NCCc1ccc(Cl)cc1)c1nnc(Cc2ccc(Cl)cc2)o1	-31.7%	29.1 µM [falling, single point]	29.1 µM [falling, single point]
COCC(=O)N(Cc1cc2ccc(C)cc2[nH]c1=O)c1ccc(OC)cc1	34.1%	–	11.6 µM [rising, partial curve, poor fit]
CCOC(=O)c1cc(-c2ccccc2)n(CC(=O)O)c1C	16.8%	0.00461 µM [rising, full curve, poor fit]	–
CC(C)NC(=O)C1c2ccccc2Oc2ccccc21	19.3%	29.1 µM [rising, single point]	–
O=C(NCc1ccco1)C(c1cccnc1)N(C(=O)Cn1nnc2ccccc21)c1ccccc1 (configuration not stated)	1.15%	–	–
CNC(=S)Nc1cc(C(F)(F)F)ccc1Cl	-1%	0.00517 µM [rising, full curve, poor fit]	–
COc1ccc2c(c1)C(c1ccc(C)o1)=NNC(c1cccnc1)=N2	-7.75%	–	–
COc1cccc(CC(=O)OCC(=O)N(C)CC(=O)Nc2ccccc2Cl)c1	6.16%	29.1 µM [rising, single point]	–
CCOc1c(S(=O)(=O)NC2CC(C)(C)NC(C)(C)C2)ccc(Cl)c1Cl	-30.5%	8.2 µM [falling, partial curve]	20.6 µM [falling, single point]
CCOC(=O)N/N=C/c1ccc(Oc2ccccc2)cc1	16.9%	–	–
CN(CC(=O)Nc1ccc(S(=O)(=O)N2CCCC2)cc1)Cc1ccc(Cl)cc1Cl	–	10.3 µM [falling, partial curve, poor fit]	–
O=C(O)/C(=C\c1cccc(O)c1)c1ccc(S(=O)(=O)N2CCCC2)s1	-1.38%	0.517 µM [rising, full curve]	–
Cc1ccc(C(C)C)c(OCc2ccc(C(=O)N/N=C/c3ccc(O)c(O)c3)cc2)c1	-25.4%	0.082 µM [falling, full curve, poor fit]	–
Fc1ccc(CNC(=S)Nc2ccc(OC(F)F)cc2)cc1	–	–	3.66 µM [falling, single point]
Cc1cc2cc(CNC(=O)c3ccc(S(=O)(=O)N4CCCCC4)cc3)ccc2n1C	23.5%	–	–
Cn1cc(S(=O)(=O)N2CCc3ccccc3C2)c(=O)n(C)c1=O	-21%	3.26 µM [falling, single point]	–
Cc1nn(CC(=O)NCc2ccc(OC(C)C)cc2)c(=O)c2cc3occc3n12	–	1.84 µM [falling, partial curve]	–
Cc1ccccc1-c1nc(CS(=O)CC(=O)NCc2ccccn2)c(C)o1 (configuration not stated)	27%	1.46 µM [falling, partial curve, poor fit]	–
O=C(NCCCN1CCOCC1)c1c(O)c2ccccc2[nH]c1=O	45.6%	29.1 µM [rising, single point]	29.1 µM [rising, single point]

2 entries from above in another layout.
Structure (SMILES) | cell number change | AC50 [1] | AC50 [2]
COCCOC(=O)C1=C(C)N(Cc2ccccc2)C(=O)NC1c1ccc(OC)cc1 (configuration not stated) | 14.2% | 2.06 µM [rising, single point] | –
Fc1ccc(CNC(=S)Nc2ccc(OC(F)F)cc2)cc1 | – | – | 3.66 µM [falling, single point]

Additional compounds follow.

Structure (SMILES)	cell number change	AC50 [1]	AC50 [2]
Cc1cc2nc(=O)c(/C=C3\C=Nc4ccccc43)c(N)n2o1	63%	1.03 µM [rising, full curve]	2.91 µM [rising, partial curve]
O=C(Nn1cnnc1)c1cc2c(s1)CCCC2	-18.6%	0.731 µM [falling, full curve]	–
CC(C)c1c(O)c2c(n(-c3ccccc3)c1=O)CCCC2	5.87%	29.1 µM [rising, single point]	–
COc1ccc(Oc2c(Cl)cnn(-c3ccc(C)cc3)c2=O)cc1	-69.6%	18.4 µM [falling, single point]	4.11 µM [falling, full curve]
Brc1ccc(-c2nnc3n2CCCCC3)cc1	7.11%	–	–
COc1cccc(-n2ccnc2SCC(=O)Nc2cc(C)on2)c1	3%	–	0.00461 µM [rising, full curve, poor fit]
COc1cc(C2CC(=O)N(CC(=O)NCc3ccco3)c3ccccc3S2)cc(OC)c1OC (configuration not stated)	–	–	0.731 µM [rising, single point]
O=C(CCC1CCCCC1)NNC(=O)NC12CC3CC(CC(C3)C1)C2	14.7%	–	–
O=C(Oc1ccccc1Cl)c1ccc2c(=O)n3c(nc2c1)CCC3	-14%	0.731 µM [falling, full curve, poor fit]	0.13 µM [falling, full curve]
O=C1SCC(c2ccccc2)=NN1Cc1ccccc1	21.2%	23.1 µM [rising, single point]	–
COc1ccc(OCCC(=O)OCC(=O)NC(=O)NC(C)C)cc1	15.4%	0.00461 µM [falling, full curve, poor fit]	–
CCN1CCN(c2ccc(S(=O)(=O)N3CCCC3)cn2)CC1	-14.4%	4.61 µM [falling, single point]	0.00461 µM [falling, full curve, poor fit]
CCCSc1nc(-n2ncc(C#N)c2N)c2c3c(sc2n1)CCC(C)C3 (configuration not stated)	–	6.51 µM [rising, single point]	1.64 µM [rising, partial curve, poor fit]
CC(C)(C)NC(=O)NC(=O)CSc1ncc(C(F)(F)F)cc1Cl	-4.65%	–	0.411 µM [falling, full curve, poor fit]
COc1ccc(C(=O)N(CCCO)Cc2cc3c(C)ccc(C)c3[nH]c2=O)cc1OC	100%	–	–
CCOC(=O)Nc1nnc(Cc2ccc(Cl)c(Cl)c2)s1	81.8%	13 µM [rising, partial curve]	20.6 µM [rising, partial curve]
CCCn1c(SC(C)C(=O)NC2CCCC2)n[nH]c1=O (configuration not stated)	-0.549%	1.46 µM [falling, partial curve]	–
COc1ccc2c(c1)CCN=C2Cc1ccc(OC)c(OC)c1	-52.5%	16.4 µM [falling, single point]	0.00461 µM [falling, full curve, poor fit]
Cc1ccc(C)c(N2CCN(C(=O)CCNS(=O)(=O)c3ccc4c(c3)oc(=O)n4C)CC2)c1	–	4.11 µM [rising, partial curve]	–
CC(C)N1C(=O)C2C(C(=O)NC3CCCCC3)C3C=CC2(O3)C1C(=O)NC1CCCCC1 (configuration not stated)	-9.84%	0.146 µM [falling, full curve]	5.8 µM [falling, single point]
